Among all 310,000 compounds or so, about 17,000 (5.5%) were called active. Inconclusive results, whose numbers are uncertain, are shown with a selection of clear calls. Calls come from the whole dose curve; as a rule, active = well fitted inhibition curve with a large enough effect; inconclusive = small, poorly fitted or top-dose-only effect, or effect the other way; inactive = no such curve, though single readings can be large or run the other way. Potencies beside an inconclusive call are fits to weak or partial responses and may not hold up.
The compounds below were run against Nuclear receptor ROR-gamma (Mus musculus) (UniProt P51450) (assay: qHTS for inhibitors of ROR gamma transcriptional activity). Settings: Drosophila S2 Gal4-RORgamma UAS-luciferase reporter, 20 h; series mostly up to 53.6 µM.
Procedure, shortened: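 Stably transfected Drosophila Schneider cells are the test system, with ROR gamma fused to Gal4 and luciferase under UAS control; luminescence is read after 20 hr of 700 uM copper sulfate induction at ambient temperature.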
Note: nearly all actives have a fitted effect of over 60% in size.
Potency is the fitted concentration of half-maximal effect.

Amino acid sequences for entries named in this document (tags omitted). A change or cut given only in a name is not applied to a line headed by its entry.
UniProt P51450: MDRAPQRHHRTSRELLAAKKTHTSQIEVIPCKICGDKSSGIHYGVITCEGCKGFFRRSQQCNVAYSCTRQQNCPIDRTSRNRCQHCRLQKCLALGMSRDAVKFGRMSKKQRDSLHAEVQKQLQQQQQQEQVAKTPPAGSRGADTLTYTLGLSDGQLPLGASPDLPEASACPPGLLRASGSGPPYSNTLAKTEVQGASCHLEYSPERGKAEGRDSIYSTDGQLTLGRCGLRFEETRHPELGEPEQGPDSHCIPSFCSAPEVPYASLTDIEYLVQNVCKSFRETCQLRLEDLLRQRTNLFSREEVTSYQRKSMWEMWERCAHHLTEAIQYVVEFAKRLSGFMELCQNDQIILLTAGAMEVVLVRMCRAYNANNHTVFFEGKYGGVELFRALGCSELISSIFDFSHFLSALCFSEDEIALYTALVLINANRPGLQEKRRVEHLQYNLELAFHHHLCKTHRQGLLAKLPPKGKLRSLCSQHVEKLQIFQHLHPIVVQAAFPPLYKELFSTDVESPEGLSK

| SMILES | Potency |
| --- | --- |
| Cc1ccc(-n2[nH]c(C)c(/C=N/NC(=O)c3ccc([N+](=O)[O-])cc3)c2=O)c(C)c1 | active: 1.78 µM |
| CCOC(=O)N1CCC(c2cc(=O)n3[nH]c(C)c(-c4ccc(F)cc4)c3n2)CC1 | active: 10 µM |
| CN1C/C(=C/c2ccc(B(O)O)cc2)C(=O)/C(=C/c2ccc(B(O)O)cc2)C1 | active: 2 µM |
| Cc1cccc(N2CCN(C(=S)NC3CCCCC3)CC2)c1C | inconclusive: 0.282 µM [inhibitor, full curve, poor fit] |
| O=C(NC(=S)N1CCc2ccccc21)c1ccccc1Br | active: 0.1 µM |
| CCOC(=O)Nc1ccc2nc(Sc3ccc(Cl)cc3)sc2c1 | inconclusive: 12.6 µM [activator, partial curve] |
| O=C(CSc1nccn1-c1ncc(C(F)(F)F)cc1Cl)c1ccc(Cl)cc1 | active: 15.8 µM |
| COC(=O)c1ccc(NC(=O)Cn2nc(C)cc2C)cc1 | inconclusive: 11.2 µM [inhibitor, single point] |
| COc1cc(C(=O)NCc2cc(C)nc3ccccc23)cc(OC)c1OC | inactive |
| CCOC(=O)C(O)(C1C(=O)CC(C)(C)CC1=O)C(F)(F)F (stereo not drawn) | inconclusive: 4.47 µM [inhibitor, single point] |
| c1cc2c(nn1)CCc1nonc1-2 | inconclusive: 35.5 µM [inhibitor, single point] |
| COc1cc(NC(=S)Nc2ncccc2C)cc(OC)c1OC | active: 12.6 µM |
| C=C(C)C(=O)Nc1cccc(C2=NOC3(C2)C[C@@H](C(N)=O)N(C(=O)/C=C/C=C/C)C3)c1 (stereo partly drawn) | inactive |
| CN(Cc1ccccc1)c1ccc(N2C(=O)CCC2=O)cc1[N+](=O)[O-] | inconclusive: 11.2 µM [activator, single point] |
| N#C/C(=C(/O)CN1CCCCC1)c1nc(-c2ccc(Cl)cc2)cs1 | inactive |
| Cc1ccc(C(NC(=O)N2CCOCC2)=C(Cl)Cl)cc1F | active: 22.4 µM |
| COCCN(Cc1ccccc1)C(=S)Nc1ccc(Cl)cc1 | active: 7.08 µM |
| CCc1sc(C(=O)NCc2ccco2)cc1C | inconclusive: 7.94 µM [activator, partial curve] |
| Cc1[nH]n(C(N)=S)c(=O)c1N=Nc1cccc(Cl)c1 | active: 0.282 µM |
| COc1ccccc1CN1CC(C(=O)NCc2cc(F)ccc2C)CCC1=O (stereo not drawn) | inactive |
| O=C(NC(=S)N1CCCc2ccccc21)c1ccc([N+](=O)[O-])cc1 | inconclusive: 28.2 µM [inhibitor, single point] |
| CCNC(=S)N/N=C/c1ccc(-c2ccccc2)o1 | active: 0.316 µM |
| O=C(OCc1nnc(-c2ccccc2)o1)C1CCN(S(=O)(=O)c2cccs2)CC1 | inconclusive: 5.62 µM [inhibitor, single point] |
| CCn1nc(NC(=O)c2ccccn2)c2cc3cc(C)ccc3nc21 | active: 5.01 µM |
| O=C(CCCc1c[nH]c2ccccc12)Nc1ccc2ccccc2c1 | inconclusive: 25.1 µM [activator, single point] |

A portion from the list above:

| SMILES | Potency |
| --- | --- |
| CN1C/C(=C/c2ccc(B(O)O)cc2)C(=O)/C(=C/c2ccc(B(O)O)cc2)C1 | active: 2 µM |
| Cc1cccc(N2CCN(C(=S)NC3CCCCC3)CC2)c1C | inconclusive: 0.282 µM [inhibitor, full curve, poor fit] |
| O=C(NC(=S)N1CCc2ccccc21)c1ccccc1Br | active: 0.1 µM |
| CCOC(=O)Nc1ccc2nc(Sc3ccc(Cl)cc3)sc2c1 | inconclusive: 12.6 µM [activator, partial curve] |
| O=C(CSc1nccn1-c1ncc(C(F)(F)F)cc1Cl)c1ccc(Cl)cc1 | active: 15.8 µM |
| COC(=O)c1ccc(NC(=O)Cn2nc(C)cc2C)cc1 | inconclusive: 11.2 µM [inhibitor, single point] |
| COc1cc(C(=O)NCc2cc(C)nc3ccccc23)cc(OC)c1OC | inactive |
| CCOC(=O)C(O)(C1C(=O)CC(C)(C)CC1=O)C(F)(F)F (stereo not drawn) | inconclusive: 4.47 µM [inhibitor, single point] |
| c1cc2c(nn1)CCc1nonc1-2 | inconclusive: 35.5 µM [inhibitor, single point] |
| COc1cc(NC(=S)Nc2ncccc2C)cc(OC)c1OC | active: 12.6 µM |
| C=C(C)C(=O)Nc1cccc(C2=NOC3(C2)C[C@@H](C(N)=O)N(C(=O)/C=C/C=C/C)C3)c1 (stereo partly drawn) | inactive |
| CN(Cc1ccccc1)c1ccc(N2C(=O)CCC2=O)cc1[N+](=O)[O-] | inconclusive: 11.2 µM [activator, single point] |
| N#C/C(=C(/O)CN1CCCCC1)c1nc(-c2ccc(Cl)cc2)cs1 | inactive |
| Cc1ccc(C(NC(=O)N2CCOCC2)=C(Cl)Cl)cc1F | active: 22.4 µM |
| COCCN(Cc1ccccc1)C(=S)Nc1ccc(Cl)cc1 | active: 7.08 µM |
| CCc1sc(C(=O)NCc2ccco2)cc1C | inconclusive: 7.94 µM [activator, partial curve] |

More entries follow.

| SMILES | Potency |
| --- | --- |
| COC(=O)c1ccc(Nc2c([N+](=O)[O-])c(=O)oc3ccccc23)cc1 | inconclusive: 15.8 µM [activator, partial curve] |
| Fc1ccc(CNC(=S)NCc2ccccc2)cc1 | active: 11.2 µM |
| COc1cc(CO)cc(-c2cc(CO)cc(OC)c2OC)c1OC | inconclusive: 0.282 µM [inhibitor, single point] |
| Cc1nc(N2CCOCC2)nc(N2CCCCC2C)c1[N+](=O)[O-] (stereo not drawn) | inactive |
| CC(Sc1cccc[n+]1[O-])C(=O)Nc1cccc(S(=O)(=O)N2CCOCC2)c1 (stereo not drawn) | inconclusive: 35.5 µM [inhibitor, single point] |
| COc1ccc(-n2c(=S)[nH]c3cc(C(=O)NCCCN4CCCC4=O)ccc3c2=O)c(OC)c1 | inconclusive: 22.4 µM [inhibitor, single point] |
| CCOC(=O)N1CCC(N2C(=O)c3ccccc3C2Nc2ccc(S(=O)(=O)N3CCOCC3)cc2)CC1 (stereo not drawn) | inactive |
| NN/C(=C\[N+](=O)[O-])Nc1ccc(Cl)cc1 | inconclusive: 25.1 µM [inhibitor, single point] |
| COc1ccc(CN2CCN(Cc3ccc(CO)o3)CC2CCO)cc1C (stereo not drawn) | inconclusive: 11.2 µM [inhibitor, single point] |
| O=C(CSc1nnnn1-c1ccccc1)Nc1nc(-c2ccccc2)ns1 | inconclusive: 15.8 µM [activator, partial curve] |
| O=C(/C(=C/c1cccc(Cl)c1)c1nc2ccccc2[nH]1)c1ccccc1 | inconclusive: 12.6 µM [inhibitor, single point] |
| COC(=O)c1ccc(CNC(=O)Cn2nnnc2CN(C)C(C)C)cc1 | inconclusive: 12.6 µM [activator, single point] |
| CC(C)C(NC(=O)c1ccccc1F)C(=O)OCC(=O)c1ccc(F)cc1 (stereo not drawn) | inconclusive: 10 µM [activator, partial curve] |
| COC(=O)Cn1c(CN(C)Cc2ccccc2)nc2c1c(=O)n(C)c(=O)n2C | inconclusive: 0.398 µM [activator, single point] |
| C/C(=N\NC(=O)CN(c1ccccc1)S(C)(=O)=O)c1ccccc1O | active: 0.708 µM |
| COc1ccccc1CCNC(=O)C1CCN(c2nnc(C)c3c(C)n(-c4ccc(C)cc4)nc23)CC1 | inconclusive: 35.5 µM [inhibitor, single point] |
| CCCC1S/C(=N/N=C/c2ccco2)NC1=O (stereo not drawn) | active: 1.58 µM |
| Nc1nc(Cl)cc(-c2ccccc2)n1 | inactive |
| Clc1ccc(SCc2cc(-c3ccc(Cl)cc3)on2)cc1 | inconclusive: 14.1 µM [activator, single point] |
| O=C(O)[C@H]1CN(CCCP(=O)(O)O)CCN1 | inactive |
| CCOc1ccc(N/C=C/C(=O)c2ccccc2)cc1 | inconclusive: 10 µM [inhibitor, partial curve, poor fit] |
| Cc1ccc(S(=O)(=O)N(C)CC(=O)OCC(=O)c2c(N)n(C)c(=O)n(C)c2=O)cc1 | inconclusive: 7.08 µM [activator, partial curve] |
| O=C(CCC1CCCC1)Nc1ccc(C(=O)NCc2cccnc2)cc1 | inactive |
| N#Cc1cc([N+](=O)[O-])ccc1N1CCN(c2ccccc2O)CC1 | inconclusive: 10 µM [activator, partial curve] |
| O=C(Cc1ccccc1)Nc1c[nH]c(=O)[nH]c1=O | inconclusive: 0.126 µM [activator, full curve] |

| SMILES | Potency |
| --- | --- |
| S=C(NCCc1ccccc1)Nc1ccc(Cl)cc1Cl | active: 3.98 µM |
| CC(=O)c1sc(NC(=O)CCS(=O)(=O)c2ccccc2)nc1C | active: 12.6 µM |
| CCN(CC)CCCNC(=O)c1cc2c(-c3cccc(OC)c3)nn(C)c2s1 | inactive |
| COc1ccc(C(=O)NC(=S)Nc2ccc(CN3CCOCC3)cc2)cc1Br | active: 7.08 µM |
| Cc1cc(C)nc(-n2nc(C)c(Oc3ccccc3O)c2C)n1 | active: 10 µM |
| Cc1cc(C)n(-c2nc3c(c(=O)[nH]c(=O)n3C)n2C(C)C)n1 | inconclusive: 2.82 µM [activator, full curve] |
| COC(=O)c1sccc1NC(=O)CSc1ccccc1NS(=O)(=O)c1ccc(F)cc1 | inconclusive: 6.31 µM [activator, partial curve, poor fit] |
| O=C(/C=C/c1cccc([N+](=O)[O-])c1)Nc1cccc(NC(=O)c2cccs2)c1 | inconclusive: 8.91 µM [activator, single point] |
| O=C(Nc1nnc(-c2ccc(F)cc2)o1)c1ccco1 | inconclusive: 22.4 µM [inhibitor, single point] |
| O=C(Cc1ccccc1)Nc1cccc(N2C(=O)C=CC2=O)c1 | active: 3.55 µM |
| O=C(Oc1cccc2cccnc12)c1ccc2c(c1)OCCO2 | active: 1.58 µM |
| COCCSc1ccccc1C(=O)NCc1ccco1 | inconclusive: 15.8 µM [inhibitor, single point] |
| CC1(C)Cc2ccccc2-c2nc(NN)[nH]c(=O)c21 | inconclusive: 35.5 µM [inhibitor, single point] |
| CSc1cccc(NC(=S)N(CCC(C)C)C2CCN(C(C)=O)CC2)c1 | inconclusive: 20 µM [inhibitor, single point] |
| O=C(NC(=S)Nc1ccc2c(c1)C(=O)c1ccccc1C2=O)c1ccc(F)cc1 | inconclusive: 0.794 µM [inhibitor, single point] |
| CCCCNc1cc(NC(C)=O)cc2cc(OC)c(OC)cc12 | inconclusive: 11.2 µM [inhibitor, single point] |
| Cc1ccc(C2=NN=C(NC(=O)CSc3nc(C)cc(C)n3)SC2)cc1 | inconclusive: 15.8 µM [inhibitor, single point] |
| COc1ccc(CNC(=O)CN(C)S(=O)(=O)c2ccc3c(c2)c(=O)n(C)c(=O)n3C)cc1 | inactive |
| COc1ccc(Oc2ncc3nc(-c4cccc(C#N)c4)c(=O)n(CCC#N)c3n2)cc1 | inconclusive: 11.2 µM [activator, partial curve] |
| O=C(CCNC(=O)Cn1ccc2ccccc2c1=O)NCC1CCCC1c1ccccc1 (stereo not drawn) | inactive |
| Cc1noc(C)c1S(=O)(=O)Nc1ccc(C(=O)N2CCN(c3ccc(Cl)cc3)CC2)cc1 | inconclusive: 17.8 µM [activator, partial curve] |
| CCOC(=O)C1CCCN(S(=O)(=O)c2c(C)[nH]c(C)c2C(=O)N2CCCC2)C1 (stereo not drawn) | inconclusive: 0.0891 µM [inhibitor, full curve, poor fit] |
| CCCCNC(=O)CSc1nc2ccc(N3CCOCC3)cc2c(=O)n1Cc1ccc(OC)cc1 | inconclusive: 35.5 µM [inhibitor, single point] |
